Laboratory results: article PMC9266683
No constants are given. Whether binding was seen depends on the method and setting. In cells and extracts the contact can be indirect. Some entries that bind do so weakly or less than the wild type. Where a sequence is shown, tags or fusion partners need not be part of it.

By UniProt entry, the sequences of proteins in these tests, tags left out. Where a name states a change or a piece, a line headed by the entry shows the natural chain unless it says otherwise. Chains listed by the source or under a name are the forms on record and can include a tag or linker. Residues count along the entry.
UniProt O48686: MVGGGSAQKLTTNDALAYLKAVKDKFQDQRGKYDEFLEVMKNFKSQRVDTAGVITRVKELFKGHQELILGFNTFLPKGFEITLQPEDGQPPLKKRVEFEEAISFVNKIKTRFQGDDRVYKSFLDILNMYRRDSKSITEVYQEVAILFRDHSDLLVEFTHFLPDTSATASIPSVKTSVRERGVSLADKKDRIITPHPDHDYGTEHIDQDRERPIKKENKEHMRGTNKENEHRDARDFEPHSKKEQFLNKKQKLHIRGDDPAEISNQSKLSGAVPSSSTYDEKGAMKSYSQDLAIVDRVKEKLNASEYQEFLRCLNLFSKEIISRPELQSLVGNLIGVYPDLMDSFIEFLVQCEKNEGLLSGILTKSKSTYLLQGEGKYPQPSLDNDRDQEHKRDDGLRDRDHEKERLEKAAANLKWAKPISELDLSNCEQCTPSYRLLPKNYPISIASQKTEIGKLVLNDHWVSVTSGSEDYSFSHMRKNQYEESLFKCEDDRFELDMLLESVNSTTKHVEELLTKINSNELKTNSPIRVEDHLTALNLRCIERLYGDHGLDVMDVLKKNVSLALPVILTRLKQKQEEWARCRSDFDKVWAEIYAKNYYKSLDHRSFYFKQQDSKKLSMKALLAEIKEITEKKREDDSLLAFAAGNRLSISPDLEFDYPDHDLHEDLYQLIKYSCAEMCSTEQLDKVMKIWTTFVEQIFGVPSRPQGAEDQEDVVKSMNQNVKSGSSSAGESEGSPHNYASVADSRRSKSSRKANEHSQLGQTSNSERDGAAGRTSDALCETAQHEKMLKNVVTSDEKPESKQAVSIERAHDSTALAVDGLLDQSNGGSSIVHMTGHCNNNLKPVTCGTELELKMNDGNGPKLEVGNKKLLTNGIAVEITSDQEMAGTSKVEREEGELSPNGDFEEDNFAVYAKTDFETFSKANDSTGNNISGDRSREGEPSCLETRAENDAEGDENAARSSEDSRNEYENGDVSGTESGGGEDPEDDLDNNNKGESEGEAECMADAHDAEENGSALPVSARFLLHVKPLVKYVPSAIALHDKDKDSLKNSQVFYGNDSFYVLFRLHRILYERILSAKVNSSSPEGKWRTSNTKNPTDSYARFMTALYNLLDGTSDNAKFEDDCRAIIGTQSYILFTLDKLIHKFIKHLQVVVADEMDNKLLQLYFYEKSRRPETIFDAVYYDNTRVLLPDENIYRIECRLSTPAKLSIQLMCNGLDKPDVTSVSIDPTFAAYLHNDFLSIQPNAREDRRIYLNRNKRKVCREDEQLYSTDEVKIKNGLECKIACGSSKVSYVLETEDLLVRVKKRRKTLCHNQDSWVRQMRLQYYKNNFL
UniProt O04539: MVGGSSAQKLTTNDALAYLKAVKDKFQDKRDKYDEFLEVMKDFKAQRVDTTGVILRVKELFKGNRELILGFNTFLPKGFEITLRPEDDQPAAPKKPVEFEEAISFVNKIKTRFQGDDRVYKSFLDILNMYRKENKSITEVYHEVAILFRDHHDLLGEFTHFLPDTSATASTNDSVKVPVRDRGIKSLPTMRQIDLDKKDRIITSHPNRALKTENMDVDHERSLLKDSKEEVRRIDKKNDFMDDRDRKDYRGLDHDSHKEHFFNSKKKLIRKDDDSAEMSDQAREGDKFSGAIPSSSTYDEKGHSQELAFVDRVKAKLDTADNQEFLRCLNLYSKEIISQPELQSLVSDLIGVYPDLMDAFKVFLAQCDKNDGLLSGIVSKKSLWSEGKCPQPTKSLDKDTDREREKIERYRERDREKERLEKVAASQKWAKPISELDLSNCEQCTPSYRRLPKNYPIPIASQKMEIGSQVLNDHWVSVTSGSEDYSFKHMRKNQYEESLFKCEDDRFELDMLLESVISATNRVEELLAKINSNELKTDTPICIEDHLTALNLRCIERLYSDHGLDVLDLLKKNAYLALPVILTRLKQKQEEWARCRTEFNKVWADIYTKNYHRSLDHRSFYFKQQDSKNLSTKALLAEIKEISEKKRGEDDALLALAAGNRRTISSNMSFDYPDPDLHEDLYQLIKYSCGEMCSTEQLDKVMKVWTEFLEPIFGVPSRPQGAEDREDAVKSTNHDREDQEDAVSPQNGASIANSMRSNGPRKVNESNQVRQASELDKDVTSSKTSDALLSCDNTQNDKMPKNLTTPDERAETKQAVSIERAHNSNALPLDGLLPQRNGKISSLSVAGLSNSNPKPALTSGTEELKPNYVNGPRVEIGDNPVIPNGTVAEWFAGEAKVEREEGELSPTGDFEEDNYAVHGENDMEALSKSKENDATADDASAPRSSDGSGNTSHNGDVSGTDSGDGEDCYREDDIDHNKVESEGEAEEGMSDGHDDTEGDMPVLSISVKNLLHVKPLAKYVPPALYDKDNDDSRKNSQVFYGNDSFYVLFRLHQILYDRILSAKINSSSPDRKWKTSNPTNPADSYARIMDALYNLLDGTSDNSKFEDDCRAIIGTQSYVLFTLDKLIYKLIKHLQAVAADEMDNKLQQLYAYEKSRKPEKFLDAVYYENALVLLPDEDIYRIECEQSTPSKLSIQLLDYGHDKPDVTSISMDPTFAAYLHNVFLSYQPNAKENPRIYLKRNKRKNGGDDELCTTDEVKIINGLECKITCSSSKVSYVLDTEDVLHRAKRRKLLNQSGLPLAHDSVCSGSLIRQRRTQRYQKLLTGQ
SNL4-PAH (aa 1–420), fused to the C-terminal half of luciferase (cLUC): residues 1-420 of O04539
UniProt Q9XIE1: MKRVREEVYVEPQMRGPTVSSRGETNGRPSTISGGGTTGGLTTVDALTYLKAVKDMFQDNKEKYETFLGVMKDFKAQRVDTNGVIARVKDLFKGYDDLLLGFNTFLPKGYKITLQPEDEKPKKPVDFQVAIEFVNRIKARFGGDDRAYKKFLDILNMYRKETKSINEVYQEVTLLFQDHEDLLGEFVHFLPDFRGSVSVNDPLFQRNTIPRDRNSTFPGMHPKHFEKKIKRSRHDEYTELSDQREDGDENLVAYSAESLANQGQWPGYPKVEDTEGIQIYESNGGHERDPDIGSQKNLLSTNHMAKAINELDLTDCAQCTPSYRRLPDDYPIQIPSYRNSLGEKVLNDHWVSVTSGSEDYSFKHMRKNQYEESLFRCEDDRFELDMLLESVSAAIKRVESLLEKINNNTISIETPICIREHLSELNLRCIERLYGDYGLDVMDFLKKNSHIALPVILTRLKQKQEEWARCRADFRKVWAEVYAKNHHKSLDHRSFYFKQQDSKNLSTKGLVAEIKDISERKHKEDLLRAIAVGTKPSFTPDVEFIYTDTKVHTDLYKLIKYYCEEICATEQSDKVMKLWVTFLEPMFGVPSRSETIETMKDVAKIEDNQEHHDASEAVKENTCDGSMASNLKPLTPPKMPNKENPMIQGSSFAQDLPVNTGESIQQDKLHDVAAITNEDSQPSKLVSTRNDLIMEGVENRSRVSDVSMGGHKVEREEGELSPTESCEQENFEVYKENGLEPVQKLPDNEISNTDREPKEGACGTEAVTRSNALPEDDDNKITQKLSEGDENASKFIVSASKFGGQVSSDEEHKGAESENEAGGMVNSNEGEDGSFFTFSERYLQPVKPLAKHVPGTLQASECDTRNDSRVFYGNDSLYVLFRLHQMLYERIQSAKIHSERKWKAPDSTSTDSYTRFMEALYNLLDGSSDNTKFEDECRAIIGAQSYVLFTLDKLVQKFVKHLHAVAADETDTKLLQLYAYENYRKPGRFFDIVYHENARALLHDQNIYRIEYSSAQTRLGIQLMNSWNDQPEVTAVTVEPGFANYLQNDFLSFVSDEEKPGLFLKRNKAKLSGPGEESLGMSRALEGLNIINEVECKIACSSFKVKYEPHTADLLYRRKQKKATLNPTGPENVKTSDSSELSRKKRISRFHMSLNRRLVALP
SNL5-PAH (aa 1–250), fused to the C-terminal half of luciferase (cLUC): residues 1-250 of Q9XIE1

Key:
Assay in all cases: split reporter; firefly luciferase complementation imaging (LCI); VAL1 constructs fused to nLUC, SNL constructs to cLUC; co-infiltrated into N. benthamiana leaves, 22 °C for 48 h, imaged with a CCD
[1] = molecular target: T1, SNL1-PAH (aa 1–450), fused to the C-terminal half of luciferase (cLUC) (Arabidopsis thaliana) (UniProt Q9SRH9)
T1 sequence: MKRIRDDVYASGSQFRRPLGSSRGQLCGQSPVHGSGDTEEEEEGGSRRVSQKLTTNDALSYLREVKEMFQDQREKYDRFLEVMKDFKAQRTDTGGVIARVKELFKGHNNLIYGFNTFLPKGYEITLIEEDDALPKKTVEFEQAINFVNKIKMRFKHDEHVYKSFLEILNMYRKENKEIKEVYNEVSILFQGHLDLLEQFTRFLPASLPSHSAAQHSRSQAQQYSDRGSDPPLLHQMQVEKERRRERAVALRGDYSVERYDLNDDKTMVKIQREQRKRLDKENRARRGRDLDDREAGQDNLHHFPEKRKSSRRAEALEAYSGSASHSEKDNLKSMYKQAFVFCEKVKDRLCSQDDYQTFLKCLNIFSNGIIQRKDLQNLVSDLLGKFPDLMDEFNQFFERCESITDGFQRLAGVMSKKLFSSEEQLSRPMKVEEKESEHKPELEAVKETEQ

[2] = molecular target: T2, SNL2-PAH (aa 1–430), fused to the C-terminal half of luciferase (cLUC) (Arabidopsis thaliana) (UniProt Q9LFQ3)
T2 sequence: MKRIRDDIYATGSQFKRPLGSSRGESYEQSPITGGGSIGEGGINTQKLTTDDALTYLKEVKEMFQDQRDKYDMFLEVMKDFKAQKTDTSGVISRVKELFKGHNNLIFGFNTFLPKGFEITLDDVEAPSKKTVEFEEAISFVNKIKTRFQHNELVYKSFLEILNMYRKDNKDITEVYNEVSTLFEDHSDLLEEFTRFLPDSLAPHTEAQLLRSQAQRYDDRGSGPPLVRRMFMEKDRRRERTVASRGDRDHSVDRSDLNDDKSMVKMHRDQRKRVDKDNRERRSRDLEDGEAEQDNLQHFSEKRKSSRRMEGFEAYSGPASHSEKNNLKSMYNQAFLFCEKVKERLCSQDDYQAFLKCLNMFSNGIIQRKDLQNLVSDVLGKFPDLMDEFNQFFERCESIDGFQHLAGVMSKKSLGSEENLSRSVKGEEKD

[3] = molecular target: SNL3, intact, fused to the C-terminal half of luciferase (cLUC) (Arabidopsis thaliana) (UniProt O48686)
[4] = molecular target: SNL4, intact, fused to the C-terminal half of luciferase (cLUC) (Arabidopsis thaliana) (UniProt O04539)
[5] = molecular target: SNL4-PAH (aa 1–420), fused to the C-terminal half of luciferase (cLUC) (Arabidopsis thaliana) (UniProt O04539)
[6] = molecular target: SNL5, intact, fused to the C-terminal half of luciferase (cLUC) (Arabidopsis thaliana) (UniProt Q9XIE1)
[7] = molecular target: SNL5-PAH (aa 1–250), fused to the C-terminal half of luciferase (cLUC) (Arabidopsis thaliana) (UniProt Q9XIE1)
[8] = molecular target: SNL6, intact, fused to the C-terminal half of luciferase (cLUC) (Arabidopsis thaliana) (UniProt Q9XIK6)
[9] = molecular target: T3, SNL6-PAH (aa 1–300), fused to the C-terminal half of luciferase (cLUC) (Arabidopsis thaliana) (UniProt Q9XIK6)
T3 sequence: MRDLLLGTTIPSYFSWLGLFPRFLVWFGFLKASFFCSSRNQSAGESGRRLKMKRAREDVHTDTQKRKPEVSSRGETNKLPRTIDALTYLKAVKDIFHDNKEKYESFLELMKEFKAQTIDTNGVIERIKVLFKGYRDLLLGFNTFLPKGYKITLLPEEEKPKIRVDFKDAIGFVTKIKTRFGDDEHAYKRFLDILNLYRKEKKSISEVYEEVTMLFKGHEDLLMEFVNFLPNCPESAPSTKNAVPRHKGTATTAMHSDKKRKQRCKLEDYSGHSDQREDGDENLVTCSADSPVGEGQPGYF

Measured: binding

B1: VAL1-CW (aa 458–673), fused to the N-terminal half of luciferase (nLUC) (domain or fragment, UniProt Q8W4L5 458-673)
chain: DDPTRVKEKKRTRTIGAKNKRLLLHSEESMELRLTWEEAQDLLRPSPSVKPTIVVIEEQEIEEYDEPPVFGKRTIVTTKPSGEQERWATCDDCSKWRRLPVDALLSFKWTCIDNVWDVSRCSCSAPEESLKELENVLKVGREHKKRRTGESQAAKSQQEPCGLDALASAAVLGDTIGEPEVATTTRHPRHRAGCSCIVCIQPPSGKGRHKPTCGCT
binds: all assays above

B2: VAL1, intact, fused to the N-terminal half of luciferase (nLUC) (protein, UniProt Q8W4L5 1-790)
chain: MFEVKMGSKMCMNASCGTTSTVEWKKGWPLRSGLLADLCYRCGSAYESSLFCEQFHKDQSGWRECYLCSKRLHCGCIASKVTIELMDYGGVGCSTCACCHQLNLNTRGENPGVFSRLPMKTLADRQHVNGESGGRNEGDLFSQPLVMGGDKREEFMPHRGFGKLMSPESTTTGHRLDAAGEMHESSPLQPSLNMGLAVNPFSPSFATEAVEGMKHISPSQSNMVHCSASNILQKPSRPAISTPPVASKSAQARIGRPPVEGRGRGHLLPRYWPKYTDKEVQQISGNLNLNIVPLFEKTLSASDAGRIGRLVLPKACAEAYFPPISQSEGIPLKIQDVRGREWTFQFRYWPNNNSRMYVLEGVTPCIQSMMLQAGDTVTFSRVDPGGKLIMGSRKAANAGDMQGCGLTNGTSTEDTSSSGVTENPPSINGSSCISLIPKELNGMPENLNSETNGGRIGDDPTRVKEKKRTRTIGAKNKRLLLHSEESMELRLTWEEAQDLLRPSPSVKPTIVVIEEQEIEEYDEPPVFGKRTIVTTKPSGEQERWATCDDCSKWRRLPVDALLSFKWTCIDNVWDVSRCSCSAPEESLKELENVLKVGREHKKRRTGESQAAKSQQEPCGLDALASAAVLGDTIGEPEVATTTRHPRHRAGCSCIVCIQPPSGKGRHKPTCGCTVCSTVKRRFKTLMMRRKKKQLERDVTAAEDKKKKDMELAESDKSKEEKEVNTARIDLNSDPYNKEDVEAVAVEKEESRKRAIGQCSGVVAQDASDVLGVTELEGEGKNVREEPRVSS
binds: all assays above
